## Drug screen on melanoma cell lines: apoptosis marker

Source: doi:10.1371/journal.pone.0140310, primary screening data, rounded.

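Human melanoma cell lines in 1,536-well plates were treated with a pair of drugs for 72 h, then fixed, stained and imaged. The read-out is the fraction of cleaved-PARP-positive nuclei, in % of that fraction in the DMSO control; 200 means twice the control level of this apoptosis marker. Every drug was used at one fixed concentration, the higher of two screened. These are primary screening values without error estimates. The marker varies much from line to line, for technical or biological reasons.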 This is part of the screen, not chosen by result. An entry leaves out what has no value listed here. A dash means that no value is listed here.

Compounds and concentrations:
STA-4783: CN(NC(=O)CC(=O)NN(C)C(=S)c1ccccc1)C(=S)c1ccccc1 at 30 nM
everolimus: CO[C@H]1C[C@@H]2CC[C@@H](C)[C@@](O)(O2)C(=O)C(=O)N2CCCC[C@H]2C(=O)O[C@H]([C@H](C)C[C@@H]2CC[C@@H](OCCO)[C@H](OC)C2)CC(=O)[C@H](C)/C=C(\C)[C@@H](O)[C@@H](OC)C(=O)[C@H](C)C[C@H](C)/C=C/C=C/C=C/1C at 100 nM
LFM-A13: C/C(O)=C(\C#N)C(=O)Nc1cc(Br)ccc1Br at 10000 nM
MK-1775: C=CCn1c(=O)c2cnc(Nc3ccc(N4CCN(C)CC4)cc3)nc2n1-c1cccc(C(C)(C)O)n1 at 100 nM
KU-55933: O=c1cc(-c2cccc3c2Sc2ccccc2S3)oc(N2CCOCC2)c1 at 5000 nM
pazopanib: Cc1ccc(Nc2nccc(N(C)c3ccc4c(C)n(C)nc4c3)n2)cc1S(N)(=O)=O at 2000 nM
PD173074: CCN(CC)CCCCNc1ncc2cc(-c3cc(OC)cc(OC)c3)c(NC(=O)NC(C)(C)C)nc2n1 at 500 nM
ABT-263: CC1(C)CCC(c2ccc(Cl)cc2)=C(CN2CCN(c3ccc(C(=O)NS(=O)(=O)c4ccc(N[C@H](CCN5CCOCC5)CSc5ccccc5)c(S(=O)(=O)C(F)(F)F)c4)cc3)CC2)C1 at 2000 nM
cediranib: COc1cc2c(Oc3ccc4[nH]c(C)cc4c3F)ncnc2cc1OCCCN1CCCC1 at 2000 nM
T0901317: O=S(=O)(c1ccccc1)N(CC(F)(F)F)c1ccc(C(O)(C(F)(F)F)C(F)(F)F)cc1 at 7000 nM
GSK0660: COC(=O)c1sccc1S(=O)(=O)Nc1ccc(Nc2ccccc2)cc1OC at 5000 nM
GW0742: Cc1cc(SCc2sc(-c3ccc(C(F)(F)F)c(F)c3)nc2C)ccc1OCC(=O)O at 10000 nM
L-779450: Oc1cc(-c2nc(-c3ccccc3)[nH]c2-c2ccncc2)ccc1Cl at 1000 nM
vismodegib: CS(=O)(=O)c1ccc(C(=O)Nc2ccc(Cl)c(-c3ccccn3)c2)c(Cl)c1 at 5000 nM
tamatinib: COc1cc(Nc2ncc(F)c(Nc3ccc4c(n3)NC(=O)C(C)(C)O4)n2)cc(OC)c1OC at 2000 nM
GW9662: O=C(Nc1ccccc1)c1cc([N+](=O)[O-])ccc1Cl at 10000 nM
palbociclib: CC(=O)c1c(C)c2cnc(Nc3ccc(N4CCNCC4)cn3)nc2n(C2CCCC2)c1=O at 200 nM
OSI-906: C[C@]1(O)C[C@@H](c2nc(-c3ccc4ccc(-c5ccccc5)nc4c3)c3c(N)nccn32)C1 at 2000 nM
fingolimod: CCCCCCCCc1ccc(CCC(N)(CO)CO)cc1 at 10000 nM
erlotinib: C#Cc1cccc(Nc2ncnc3cc(OCCOC)c(OCCOC)cc23)c1 at 4000 nM

Pair,C32,IST-MEL1,MeWo,SK-MEL-2,WM451Lu,RVH-421
PD173074 and T0901317,181,31.0,90.7,187,76.2,180
T0901317 and palbociclib,106,78.1,57.9,36.6,149,179
LFM-A13 and ABT-263,211,179,196,125,254,86.7
ABT-263 and KU-55933,98.8,75.0,133,175,159,126
palbociclib and MK-1775,136,235,168,167,89.1,95.1
LFM-A13 and cediranib,86.6,90.9,86.1,194,57.1,43.5
erlotinib and tamatinib,117,514,124,81.0,82.5,173
GW9662 and MK-1775,96.9,62.1,126,155,213,154
pazopanib and T0901317,139,91.2,125,97.7,46.2,91.3
L-779450 and fingolimod,2420,1370,332,11200,2530,1160
vismodegib and KU-55933,73.3,64.5,85.7,141,123,118
PD173074 and L-779450,110,68.7,83.8,-,81.4,151
ABT-263 and erlotinib,245,138,208,422,80.5,378
STA-4783 and GSK0660,241,555,748,54.1,113,204
erlotinib and vismodegib,42.9,43.9,112,250,125,159
fingolimod and palbociclib,512,869,143,12600,689,1190
OSI-906 and STA-4783,5750,126,579,270,126,140
cediranib and GW0742,97.5,56.0,126,85.3,121,165
LFM-A13 and GW0742,77.1,67.7,183,150,112,242
palbociclib and OSI-906,63.8,82.0,65.6,83.3,90.1,39.3
tamatinib and GW0742,106,76.9,28.0,89.2,139,48.4
GW0742 and pazopanib,74.1,88.4,60.2,24.4,73.9,156
KU-55933 and GSK0660,67.4,61.5,268,82.0,54.3,355
OSI-906 and everolimus,196,91.3,148,531,172,26.6
L-779450 and erlotinib,538,145,61.1,581,397,160

The first 2 entries again:

- PD173074 and T0901317 : C32: 181; IST-MEL1: 31.0; MeWo: 90.7; SK-MEL-2: 187; WM451Lu: 76.2; RVH-421: 180
- T0901317 and palbociclib : C32: 106; IST-MEL1: 78.1; MeWo: 57.9; SK-MEL-2: 36.6; WM451Lu: 149; RVH-421: 179